PubChem BioAssay AID1259308 | NCATS, 2017
Purpose: 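Genes whose loss raises luciferase production in HEK293 cells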 (primary screen). Cell system: human HEK293 embryonic kidney cells stably expressing firefly luciferase (HEK-CMV-Luc2-Hygro). Reagents: single siRNA against human genes, 0.8 pmol siRNA per well. Time to read-out: 72 h. Measured: 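Luciferase light (ONE-Glo) measured on one replicate plate set and viability (CellTiter-Glo) on the other, scaled to a negative control siRNA, with robust z-scores and luciferase per cell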. Reading the numbers: total luciferase, z-score and total luciferase, % of control: higher = more reporter protein produced; luciferase per cell, z-score: higher = more reporter output per viable cell; viable cells, % of control: higher = more viable cells. Hit rule: 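Active when the median/MAD z-score for overall luciferase is greater than 3; a gene was taken forward for validation with new siRNAs if at least two of its three siRNAs passed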. Meaning of the calls: active = raised luciferase; inactive = no rise.
The whole screen tested about 59,000 reagents; this is an unselected part. About 1,510 of them (2.6%) count as active. 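Calls use total luciferase alone and ignore viability, so some active siRNAs may act by altering cell number.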 The numbers tell different reagents against one gene apart.

target	reagent no.	total luciferase, z-score	total luciferase, % of control	luciferase per cell, z-score	viable cells, % of control	activity call
TMEM184B (GeneID 25829)	1	-1.1	60.1	1.57	44.4	inactive
TMEM184B (GeneID 25829)	2	-0.812	65.7	-0.795	90.6	inactive
TMEM184B (GeneID 25829)	3	0.528	92.4	0.376	93.5	inactive
LHX9 (GeneID 56956)	1	-0.316	75.6	0.309	77.9	inactive
LHX9 (GeneID 56956)	2	0.316	88.2	0.699	82	inactive
LHX9 (GeneID 56956)	3	1.54	113	0.71	104	inactive
PLEK2 (GeneID 26499)	1	-0.56	70.8	-0.878	99.6	inactive
PLEK2 (GeneID 26499)	2	0.91	100	0.316	103	inactive
PLEK2 (GeneID 26499)	3	1.2	106	1.12	88	inactive
HNRNPCL1 (GeneID 343069)	1	2.51	132	1.19	108	inactive
HNRNPCL1 (GeneID 343069)	2	0.469	91.2	-0.196	107	inactive
HNRNPCL1 (GeneID 343069)	3	2.09	123	2.89	64.4	inactive
HSD17B1 (GeneID 3292)	1	-0.711	67.7	-0.774	92.8	inactive
HSD17B1 (GeneID 3292)	2	0.696	95.7	0.104	104	inactive
HSD17B1 (GeneID 3292)	3	-2.56	31	-2.99	76.2	inactive

The list goes on; the last 3 above are carried over.
target	reagent no.	total luciferase, z-score	total luciferase, % of control	luciferase per cell, z-score	viable cells, % of control	activity call
HSD17B1 (GeneID 3292)	1	-0.711	67.7	-0.774	92.8	inactive
HSD17B1 (GeneID 3292)	2	0.696	95.7	0.104	104	inactive
HSD17B1 (GeneID 3292)	3	-2.56	31	-2.99	76.2	inactive
GRM5 (GeneID 2915)	1	-0.786	66.2	-1.07	98.2	inactive
GRM5 (GeneID 2915)	2	-1.56	50.8	-2.13	99.4	inactive
GRM5 (GeneID 2915)	3	0.588	93.6	0.31	96.4	inactive
NAT8B (GeneID 51471)	1	-0.568	70.6	-0.93	101	inactive
NAT8B (GeneID 51471)	2	-0.2	77.9	-0.358	95.7	inactive
NAT8B (GeneID 51471)	3	0.948	101	0.467	99.5	inactive
ZNF784 (GeneID 147808)	1	1.88	119	1.4	92.3	inactive
ZNF784 (GeneID 147808)	2	0.375	89.3	0.344	91.2	inactive
ZNF784 (GeneID 147808)	3	0.911	100	1.06	84.5	inactive
